Measured values taken from patent US20240368286A1.
Substitutions are numbered along the chain they refer to. Results are given in words; binding and its absence hold for the method and conditions named. Some results given as binding are weak or reduced against the parent protein; the word gives no strength.

T1: Mouse GFRAL protein (Biacore analyte) (mouse) (UniProt Q6SJE0)
T1 sequence (looked up): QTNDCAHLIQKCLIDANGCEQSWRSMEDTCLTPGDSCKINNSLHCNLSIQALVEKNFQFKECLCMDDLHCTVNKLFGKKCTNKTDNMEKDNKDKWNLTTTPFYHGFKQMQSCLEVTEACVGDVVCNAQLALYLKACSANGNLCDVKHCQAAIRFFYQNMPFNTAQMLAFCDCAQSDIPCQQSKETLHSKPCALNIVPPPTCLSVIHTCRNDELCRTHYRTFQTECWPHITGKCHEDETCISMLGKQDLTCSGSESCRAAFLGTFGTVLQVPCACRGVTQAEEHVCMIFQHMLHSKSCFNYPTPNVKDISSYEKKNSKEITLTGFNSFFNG

T2: Human GFRAL protein (Biacore analyte) (human) (UniProt Q6UXV0)
T2 sequence (looked up): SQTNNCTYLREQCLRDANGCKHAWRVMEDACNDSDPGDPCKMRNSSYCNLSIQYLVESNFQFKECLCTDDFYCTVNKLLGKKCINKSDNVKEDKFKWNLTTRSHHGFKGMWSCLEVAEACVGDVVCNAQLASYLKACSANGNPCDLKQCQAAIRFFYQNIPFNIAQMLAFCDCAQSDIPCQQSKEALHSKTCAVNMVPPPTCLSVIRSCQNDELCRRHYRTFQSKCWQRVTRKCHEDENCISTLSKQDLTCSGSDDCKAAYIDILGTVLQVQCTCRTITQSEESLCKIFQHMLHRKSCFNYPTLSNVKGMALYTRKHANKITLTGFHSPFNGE

B1: 26D7H5bL5a (antibody, V domains shown)
VH: QVQLVQSGAEVKKPGASVKVSCKVSGYTFTDYGMNWVRQAPGQGLEWMGWINTYTGEPTYAQKLQGRVTFTTDTSTSTAYMELRSLRSDDTAVYYCARRYGYDAGIDAWGQGTTVTVSS
VL: DIQMTQSPSSLSASVGDRVTITCRASESVESYGNNLMHWYQQKPGKAPKLLIYLASYLESGVPSRFSGSGSGTDFTLTISSLQPEDFATYYCQQNNESPWTFGGGTKLEIK
B2: 26D7 (antibody, V domains shown)
VH: QIQLVQSGPELKKPGETVKISCKVSGYTFTDYGMNWVKQTPGKDLKWVGWINTYTGEPTYADDFKDRFAFSLEASASTAYLQINNLKNEDTATYFCARRYGYDAGIDCWGQGTTLTVSS
VL: NIVLTQSPPSLAVSLGQRATISCRASESVDSYGNNLMHWYQQKPGQPPKLLIYLASYLESGVPARFSGSGSRTDFTLTIDPVEADDAATYYCQQNNEDPWTFGGGTKLEIK
B3: 26D7H3aL2c (antibody, V domains shown)
VH: QVQLVQSGAEVKKPGASVKISCKVSGYTFTDYGMNWVRQTPGQGLKWVGWINTYTGEPTYADDFKDRFTFTLDASTSTAYMELRSLRSDDTAVYFCARRYGYDAGIDAWGQGTLVTVSS
VL: EIVLTQSPGTLSLSPGERATLSCRASESVESYGNNLMHWYQQKPGQAPRLLIYLASYLESGVPDRFSGSGSGTDFTLTISRLEPEDFATYYCQQNNESPWTFGQGTKVEIK
B4: 8E10 (antibody, V domains shown)
VH: QVQLQQSGSELVRPGSSVKISCRASGYTFSNYWMNWVKQRPGQGLEWIGQIYPGDDDADYNGKFQGKATLTADKSSSTAYMQLNTLTSEDSAVYFCTRSGRRDFDYWGQGTTLTVSS
VL: B2 VL with P9A, V29I, S31N, N35S, L36F, L54R, Y57N, W100Y
B5: 168A7 (antibody, V domains shown)
VH: QVTLKESGPGILKPSQTLSLTCSFSGFSLSTSDMGVGWIRQPSGKGLEWLAHIWWDDDKYYNPSLKRQLTISKDNSRNQVFLKISSVDTTDTATYYCARLYDYDDEYYFDYWGQGTTLTVSS
VL: DIQMTQTKSSLSASLGDRVTISCRASQDSNNYLNWYQQKPDGTVKLLIYYTSRLHSGVPSRFSGSGSGTDYSLTISNLEHEDIATYFCQQGNTIPWTFGGGTKLEIK

Target: T1, Mouse GFRAL protein (Biacore analyte) (mouse)
Assay: Biacore SPR

Row | binding | Binder
1 | binds | B1
2 | binds | B2
3 | binds | B3

Target: T2, Human GFRAL protein (Biacore analyte) (human)
Assay: Biacore SPR

Row | binding | Binder
4 | binds | B1
5 | binds | B4
6 | binds | B2
7 | binds | B5
8 | binds | B3
